# The inconclusive results got no clear call from the source; some entries with a clear call stand among them for comparison. For part of these data: Potencies of inconclusive entries are doubtful fits and often do not repeat. Active and inactive are the calls of the source. Unless noted, the call rests on the fitted dose curve; in most records, active means well fitted curve in the direction sought with a large enough effect; inconclusive means small, poorly fitted or top-dose-only effect, or another doubt; inactive means no such curve, though single readings can be large; an effect the other way counts as inactive or inconclusive.
# Chains of the proteins cited; added tags and fusions are not shown. Lines headed by an entry give the natural chain unless they say otherwise; changes in a name come on top.
# UniProt P08482: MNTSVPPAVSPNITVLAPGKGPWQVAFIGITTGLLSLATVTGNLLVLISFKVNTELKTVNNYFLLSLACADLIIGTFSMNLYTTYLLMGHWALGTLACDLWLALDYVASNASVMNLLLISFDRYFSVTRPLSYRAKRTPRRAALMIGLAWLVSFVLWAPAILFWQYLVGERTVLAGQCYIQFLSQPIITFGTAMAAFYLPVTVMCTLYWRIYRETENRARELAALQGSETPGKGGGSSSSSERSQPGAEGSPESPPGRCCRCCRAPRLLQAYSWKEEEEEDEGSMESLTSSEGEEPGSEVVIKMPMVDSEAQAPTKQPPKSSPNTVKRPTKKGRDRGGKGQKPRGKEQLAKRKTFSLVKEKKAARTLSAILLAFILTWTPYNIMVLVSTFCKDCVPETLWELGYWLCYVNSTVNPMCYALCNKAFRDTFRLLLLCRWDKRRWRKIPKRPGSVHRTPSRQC
# UniProt P33261, whole entry, looked up: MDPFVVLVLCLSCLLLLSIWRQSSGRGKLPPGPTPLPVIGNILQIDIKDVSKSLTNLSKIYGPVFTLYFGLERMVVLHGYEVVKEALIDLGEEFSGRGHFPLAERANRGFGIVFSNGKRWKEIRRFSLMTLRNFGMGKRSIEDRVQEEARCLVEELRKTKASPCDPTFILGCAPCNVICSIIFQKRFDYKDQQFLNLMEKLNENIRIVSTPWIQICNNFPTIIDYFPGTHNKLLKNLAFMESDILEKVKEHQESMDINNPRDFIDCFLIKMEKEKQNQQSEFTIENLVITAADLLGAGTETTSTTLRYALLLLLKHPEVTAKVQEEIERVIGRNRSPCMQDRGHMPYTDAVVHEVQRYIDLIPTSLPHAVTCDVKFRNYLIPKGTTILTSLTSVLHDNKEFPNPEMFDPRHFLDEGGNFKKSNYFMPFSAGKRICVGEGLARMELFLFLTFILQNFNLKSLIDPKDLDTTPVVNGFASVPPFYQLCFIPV
# UniProt P08684, whole entry, looked up: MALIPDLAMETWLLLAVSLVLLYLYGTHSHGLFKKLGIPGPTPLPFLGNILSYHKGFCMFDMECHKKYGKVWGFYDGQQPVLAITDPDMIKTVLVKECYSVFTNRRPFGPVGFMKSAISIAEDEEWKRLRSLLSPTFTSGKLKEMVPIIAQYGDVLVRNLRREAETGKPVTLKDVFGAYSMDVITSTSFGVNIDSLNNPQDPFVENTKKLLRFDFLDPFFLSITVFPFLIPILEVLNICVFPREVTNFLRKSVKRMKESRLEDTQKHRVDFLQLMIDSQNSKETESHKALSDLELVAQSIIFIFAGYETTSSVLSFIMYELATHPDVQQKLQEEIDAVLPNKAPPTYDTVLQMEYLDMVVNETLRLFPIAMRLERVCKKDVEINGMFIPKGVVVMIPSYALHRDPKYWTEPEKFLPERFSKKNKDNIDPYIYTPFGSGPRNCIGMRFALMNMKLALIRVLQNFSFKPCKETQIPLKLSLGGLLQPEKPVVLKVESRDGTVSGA
# UniProt Q07343: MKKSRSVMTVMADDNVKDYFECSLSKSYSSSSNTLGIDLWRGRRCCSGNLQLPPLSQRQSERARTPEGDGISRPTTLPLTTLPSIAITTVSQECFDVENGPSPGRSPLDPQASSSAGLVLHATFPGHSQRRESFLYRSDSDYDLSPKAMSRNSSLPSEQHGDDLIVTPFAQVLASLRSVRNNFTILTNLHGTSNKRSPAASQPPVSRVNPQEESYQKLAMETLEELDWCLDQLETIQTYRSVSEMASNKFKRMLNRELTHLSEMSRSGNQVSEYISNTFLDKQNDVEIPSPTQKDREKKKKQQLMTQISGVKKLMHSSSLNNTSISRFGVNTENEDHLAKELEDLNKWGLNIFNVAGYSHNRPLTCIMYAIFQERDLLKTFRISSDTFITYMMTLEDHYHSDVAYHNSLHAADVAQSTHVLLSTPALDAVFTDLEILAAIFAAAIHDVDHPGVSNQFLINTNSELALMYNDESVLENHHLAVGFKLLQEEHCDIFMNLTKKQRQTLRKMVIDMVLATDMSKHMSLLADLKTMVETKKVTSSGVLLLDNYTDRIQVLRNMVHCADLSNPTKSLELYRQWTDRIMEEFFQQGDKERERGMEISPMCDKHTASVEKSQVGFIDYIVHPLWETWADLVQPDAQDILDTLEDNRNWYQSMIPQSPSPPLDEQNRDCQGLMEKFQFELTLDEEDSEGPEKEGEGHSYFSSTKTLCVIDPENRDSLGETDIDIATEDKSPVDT
# UniProt O94782: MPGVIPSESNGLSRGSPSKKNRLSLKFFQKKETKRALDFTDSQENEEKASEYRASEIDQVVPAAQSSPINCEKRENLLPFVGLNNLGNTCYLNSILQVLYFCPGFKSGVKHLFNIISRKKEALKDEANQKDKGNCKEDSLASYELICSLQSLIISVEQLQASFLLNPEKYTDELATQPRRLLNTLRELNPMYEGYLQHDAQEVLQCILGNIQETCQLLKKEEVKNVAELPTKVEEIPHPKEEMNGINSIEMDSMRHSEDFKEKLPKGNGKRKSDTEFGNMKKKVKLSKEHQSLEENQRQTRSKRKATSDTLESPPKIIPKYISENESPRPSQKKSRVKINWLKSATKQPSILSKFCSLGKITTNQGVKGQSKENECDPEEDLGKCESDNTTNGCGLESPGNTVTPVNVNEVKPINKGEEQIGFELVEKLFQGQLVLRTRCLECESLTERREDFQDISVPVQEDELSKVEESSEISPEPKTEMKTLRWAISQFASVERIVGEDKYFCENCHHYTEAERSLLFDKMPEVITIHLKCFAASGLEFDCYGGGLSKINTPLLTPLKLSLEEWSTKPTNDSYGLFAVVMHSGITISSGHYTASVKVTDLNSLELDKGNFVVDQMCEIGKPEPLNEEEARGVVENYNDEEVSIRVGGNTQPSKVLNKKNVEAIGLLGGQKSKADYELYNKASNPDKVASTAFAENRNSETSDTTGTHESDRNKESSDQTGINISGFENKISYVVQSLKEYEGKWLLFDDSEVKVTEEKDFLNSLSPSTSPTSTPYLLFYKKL
# UniProt Q9NUW8, whole entry, looked up: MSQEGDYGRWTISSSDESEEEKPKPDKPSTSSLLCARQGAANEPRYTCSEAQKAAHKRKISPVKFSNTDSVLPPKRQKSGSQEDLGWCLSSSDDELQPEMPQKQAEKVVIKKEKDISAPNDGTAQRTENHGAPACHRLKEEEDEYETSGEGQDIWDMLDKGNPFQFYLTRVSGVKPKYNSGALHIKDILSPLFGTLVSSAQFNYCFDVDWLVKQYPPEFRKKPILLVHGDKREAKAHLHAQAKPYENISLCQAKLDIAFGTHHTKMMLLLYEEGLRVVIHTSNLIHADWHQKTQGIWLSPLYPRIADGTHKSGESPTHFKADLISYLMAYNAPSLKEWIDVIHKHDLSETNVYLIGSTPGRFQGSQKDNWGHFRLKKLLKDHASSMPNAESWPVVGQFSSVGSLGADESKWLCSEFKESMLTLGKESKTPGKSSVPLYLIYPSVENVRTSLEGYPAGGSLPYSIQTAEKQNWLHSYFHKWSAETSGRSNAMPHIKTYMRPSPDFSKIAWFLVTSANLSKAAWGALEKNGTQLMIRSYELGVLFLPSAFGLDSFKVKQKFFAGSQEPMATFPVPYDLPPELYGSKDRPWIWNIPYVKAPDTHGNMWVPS
# UniProt P11473: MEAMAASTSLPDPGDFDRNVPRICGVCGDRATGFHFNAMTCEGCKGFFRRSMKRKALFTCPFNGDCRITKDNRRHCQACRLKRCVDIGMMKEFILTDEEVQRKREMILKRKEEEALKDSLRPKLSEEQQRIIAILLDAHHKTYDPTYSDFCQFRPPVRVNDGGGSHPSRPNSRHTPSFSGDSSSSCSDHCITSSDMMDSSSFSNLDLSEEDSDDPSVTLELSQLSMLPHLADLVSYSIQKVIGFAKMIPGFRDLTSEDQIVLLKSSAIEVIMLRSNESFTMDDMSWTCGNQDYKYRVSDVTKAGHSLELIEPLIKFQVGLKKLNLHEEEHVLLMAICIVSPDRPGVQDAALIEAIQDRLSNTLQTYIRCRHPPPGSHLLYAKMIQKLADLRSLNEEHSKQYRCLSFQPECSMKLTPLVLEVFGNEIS
# UniProt P04150: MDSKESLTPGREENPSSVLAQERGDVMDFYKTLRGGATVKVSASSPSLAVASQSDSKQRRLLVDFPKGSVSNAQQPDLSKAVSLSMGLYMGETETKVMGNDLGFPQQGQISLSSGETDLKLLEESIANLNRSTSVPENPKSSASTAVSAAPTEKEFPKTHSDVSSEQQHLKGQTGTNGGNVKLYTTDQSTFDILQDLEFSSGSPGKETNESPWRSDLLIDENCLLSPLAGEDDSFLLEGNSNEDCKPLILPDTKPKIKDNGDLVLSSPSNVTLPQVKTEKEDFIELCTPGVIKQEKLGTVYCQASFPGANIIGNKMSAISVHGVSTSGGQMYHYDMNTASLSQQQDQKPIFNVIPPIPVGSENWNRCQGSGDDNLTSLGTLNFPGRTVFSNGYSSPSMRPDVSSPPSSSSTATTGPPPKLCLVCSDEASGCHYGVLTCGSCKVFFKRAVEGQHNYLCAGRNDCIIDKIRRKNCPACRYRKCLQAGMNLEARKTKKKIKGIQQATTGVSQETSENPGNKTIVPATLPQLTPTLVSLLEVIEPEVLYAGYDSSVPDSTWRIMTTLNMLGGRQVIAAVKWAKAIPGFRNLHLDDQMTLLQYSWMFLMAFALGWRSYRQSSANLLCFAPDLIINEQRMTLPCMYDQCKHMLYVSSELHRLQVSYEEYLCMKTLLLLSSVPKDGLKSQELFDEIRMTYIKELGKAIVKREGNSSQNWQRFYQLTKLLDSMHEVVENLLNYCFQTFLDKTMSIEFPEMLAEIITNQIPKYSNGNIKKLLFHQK
# Assays:
# [1] = Stat Signaling Pathway (AID 446; active means well fitted curve in either direction with a large enough effect, not every such curve was filed as active; inconclusive means small, poorly fitted or top-dose-only effect, or another doubt;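 further: ME-180 cervical cancer cells given 40 pM IL-6 alongside compound; SIE-controlled beta-lactamase reporter measured as 460/530 nm FRET emission ratio; on the % scale 0 is the no-effect control and ±100 the full control effect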); details: ME-180 SIE beta-lactamase reporter, IL-6 stimulated, 5 h; at 7.69 µM (top of the series) unless noted
# Outline: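 ME-180 cells carrying a SIE-driven beta-lactamase reporter are stimulated with 40 pM IL-6 for 5 h at 37C in the presence of compound. The 460/530 nm FRET substrate ratio is read after 2.5 h at RT. Data are normalised to 300 pM IL-6 and to 125 nM JAK inhibitor controls.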
# [2] = molecular target: Mitogen-activated protein kinase 10 (Mus musculus) (UniProt Q61831); assay: JNK3 AlphaScreen Assay (AID 530; active means well fitted curve in either direction with a large enough effect, not every such curve was filed as active; inconclusive means small, poorly fitted or top-dose-only effect, or another doubt;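 further: kinase came from lysate of stimulated human HepG2 cells; potency means the concentration at half of the fitted maximal effect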); details: JNK3 lysate, c-Jun phosphorylation; activity change, negative = inhibition: at 57.1 µM (top of the series)
# Outline: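 Inhibitors reduce antibody binding to phosphorylated biotin-cJun, lowering AlphaScreen luminescence. Lysates from HepG2 cells pre-activated by IL-1beta plus TNF-alpha supplied JNK3; compounds were titrated.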
# [3] = qHTS Assay for Identification of Small Molecule Antagonists for NFkB Signaling Pathway (AID 895; active means well fitted inhibition curve with a large enough effect in the signal ratio, with a control signal flat, not every such curve was filed as active; inconclusive means small, poorly fitted or top-dose-only effect, or effect the other way, or a change in a side signal; the % refers to the signal ratio; further: on the % scale 0 is the no-effect control and ±100 the full control effect); details: NFkB beta-lactamase reporter cells, FRET ratio 460/530, stimulated with 10 pM TNF alpha; activity change, negative = inhibition: at 38.3 µM (top of the series)
# Outline: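 NFkB-bla ME-180 cervical carcinoma cells with beta-lactamase reporter under NFkB response element; compounds added, then TNF alpha at 10 pM final (EC50), 5 h at 37 C. LiveBLAzer substrate 2 h, room temperature; emission 460/530 nm at 405 nm excitation.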
# [4] = qHTS Assay for Identification of Small Molecule Antagonists for Thrombopoietin (TPO) Signaling Pathway (AID 918); details: TPO-dependent cell signaling reporter, antagonist mode; activity change, negative = inhibition: at 38.5 µM (top of the series); further: potency means the concentration at half of the fitted maximal effect; nearly all actives have a fitted effect of over 60% in size
# Outline: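 Ba/F3 (murine, hTPO-R, GPIIb-luc reporter); overnight IL-3 withdrawal; cpd + TPO 26 pM final (EC50); 24 h 37 C/5% CO2; Steadylite luminescence after 10 min RT.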
# [5] = molecular target: Muscarinic acetylcholine receptor M1 (Rattus norvegicus) (UniProt P08482); assay: qHTS Assay for Antagonists of Acetylcholine Muscarinic M1 Receptor: Measurement of IP-One Response (AID 944); further: potency means the concentration at half of the fitted maximal effect; nearly all actives have a fitted effect of over 75% in size
# [6] = Primary qHTS for small molecule stabilizers of the endoplasmic reticulum resident proteome: Secreted ER Calcium Modulated Protein (SERCaMP) assay (AID 1508630); details: SH-SY5Y GLuc-SERCaMP (Gaussia luciferase released on ER calcium loss) secretion, thapsigargin, luminescence; activity change, negative = inhibition: at 38.4 µM (top of the series) unless noted; further: potency means the concentration at half of the fitted maximal effect
# Outline: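 GLuc-SERCaMP-expressing SH-SY5Y cells, pretreated 16 h with compound, are challenged with thapsigargin to empty ER calcium stores; after 4 h, coelenterazine is added directly to the medium and luminescence is imaged.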
# [7] = molecular target: Cytochrome P450 2C19 (Homo sapiens) (UniProt P33261); assay: qHTS Assay for Inhibitors and Substrates of Cytochrome P450 2C19 (AID 899); further: potency means the concentration at half of the fitted maximal effect; nearly all actives have a fitted effect of over 60% in size
# Outline: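 In 50mM KPO4, the reaction held 5nM enzyme and KM-level (10uM) Luciferin-H EGE; it ran 60 min at 37C after NADPH regeneration and a 10 min compound preincubation. Luminescence values were scaled to 57uM ketoconazole as complete inhibition.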
# [8] = qHTS Assay for Identification of Small Molecule Agonists for Hypoxia Response Element Signaling Pathway (AID 914; active means well fitted activation curve with a large enough effect in the signal ratio, with a control signal flat, not every such curve was filed as active; inconclusive means small, poorly fitted or top-dose-only effect, or effect the other way, or a change in a side signal; the % refers to the signal ratio; further: potency means the concentration at half of the fitted maximal effect; on activation: % of control where 0% means no effect); details: ME-180 (cervical carcinoma) HRE-bla reporter, beta-lactamase ratio, CoCl2, 17 h; activation: active compounds read high
# Outline: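 A beta-lactamase reporter under hypoxia response element control in ME-180 cells served as the system. Compound titrations plus EC50 CoCl2 ran 17 h at 37 degrees Celsius; AC50 values were fitted from %Activity.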
# [9] = NFAT Signaling Pathway (AID 444; active means well fitted curve in either direction with a large enough effect, not every such curve was filed as active; inconclusive means small, poorly fitted or top-dose-only effect, or another doubt;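 further: carbachol stimulus at about its EC50 of 1 µM final; on the % scale 0 is the no-effect control and ±100 the full control effect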); details: Jurkat NFAT-bla M1, carbachol, beta-lactamase ratio, 5 h; at 7.69 µM (top of the series) unless noted
# Outline: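 Jurkat cells carrying an NFAT-driven β-lactamase reporter and co-transfected muscarinic M1 receptor were treated with compound plus carbachol (1 uM final, an EC50 level) for 5 h at 37 °C. CCF4 loading followed for 1 h at RT; 460/530 nm ratio gave %activity.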
# [10] = molecular target: Cytochrome P450 3A4 (Homo sapiens) (UniProt P08684); assay: qHTS Assay for Inhibitors and Substrates of Cytochrome P450 3A4 (AID 884); details: recombinant CYP3A4, Luciferin-PPXE luminescence; activity change, negative = inhibition: at 57.1 µM (top of the series); further: nearly all actives have a fitted effect of over 50% in size; further: potency means the concentration at half of the fitted maximal effect; on activity change, negative = inhibition: on the % scale 0 is the no-effect control and ±100 the full control effect
# Outline: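 20 nM human CYP3A4 with 25 uM Luciferin-PPXE (at KM) in 200 mM KPO4, preincubated 10 min with compound; NADPH regeneration started a 60 min RT reaction. Luciferin detected by luminescence, normalized to 57 uM ketoconazole as full inhibition.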
# [11] = molecular target: Cytochrome P450 3A4 (Homo sapiens) (UniProt P08684); assay: qHTS Assay for Activators of Cytochrome P450 3A4 (AID 885); further: potency means the concentration at half of the fitted maximal effect; nearly all actives have a fitted effect of over 65% in size
# Outline: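 Human CYP3A4 (20 nM) with Luciferin-PPXE at 25 uM (its KM) in 200 mM KPO4; 10 min compound preincubation, then NADPH regeneration and 60 min reaction at RT. Luciferin read by luminescence; normalized to 57 uM ketoconazole full inhibition.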
# [12] = molecular target: 3',5'-cyclic-AMP phosphodiesterase 4B (Homo sapiens) (UniProt Q07343); assay: qHTS Assay for Inhibitors of PDE-IV (AID 607; active means well fitted activation curve with a large enough effect in the main read-out, with a control signal flat, not every such curve was filed as active; inconclusive means small, poorly fitted or top-dose-only effect, or effect the other way, or a change in a side signal; further: potency means the concentration at half of the fitted maximal effect; on activation (PDE inhibition): % of control where 0% means no effect); details: HEK293 ACTOne CNG channel cells, membrane potential fluorescence; activation (PDE inhibition): at 22.9 µM (top of the series)
# Outline: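 HEK293 ACTOne cells with CNG channel (1000/well), endogenous PDE4; membrane potential dye, compounds up to 22.9 uM final. Fluorescence Ex 535/Em 590; RO 20-1724 (100 uM final) as reference.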
# [13] = molecular target: Ubiquitin carboxyl-terminal hydrolase 1 (Homo sapiens) (UniProt O94782); assay: Inhibitors of USP1/UAF1: Pilot qHTS (AID 504865); further: nearly all actives have a fitted effect of over 35% in size; further: potency means the concentration at half of the fitted maximal effect
# Outline: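 1nM USP1/UAF1 + cpd, 15 min RT; start w/ Ub-Rho 150nM final; kinetic FL 480/540 nm, 6 reads q60 s. Buffer 50mM HEPES pH 7.8, 0.5mM EDTA, 1mM TCEP, 0.01% Tween-20, 0.1 mg/ml BSA.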
# [14] = molecular target: Tyrosyl-DNA phosphodiesterase 1 (Homo sapiens) (UniProt Q9NUW8); assay: Confirmation Assay for Inhibitors of Tyrosyl-DNA Phosphodiesterase (TDP1) (AID 489007); details: recombinant human TDP1 enzymatic activity, dose-response; further: potency means the concentration at half of the fitted maximal effect; nearly all actives have a fitted effect of over 40% in size
# Outline: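 Tdp1 1 nM + cpd, 15 min RT; add biotin/phosphotyrosine-FITC oligo 15 nM, 5 min RT; add AS donor/acceptor beads 10 ug/ml, 10 min RT; read AlphaScreen. No-enzyme wells = max signal.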
# [15] = qHTS for Inhibitors of the vitamin D receptor (VDR): Hit Validation using a Texas Red Assay (AID 602201); further: potency means the concentration at half of the fitted maximal effect
# Outline: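 Fluorescence polarization (Ex 595/Em 615 nm) of Texas Red (7 nM) with 1.5 uM VDR-LBD and LG19078 (final concentrations). Compounds were incubated for 2 hours at room temperature.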
# [16] = molecular target: Vitamin D3 receptor (Homo sapiens) (UniProt P11473); assay: qHTS for Inhibitors of the vitamin D receptor (VDR): Hit Validation using a Beta-Lactamase Assay (AID 602202); further: potency means the concentration at half of the fitted maximal effect
# Outline: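 Stably transfected HEK293 cells express a VDR–GAL4 DNA-binding-domain fusion driving a UAS beta-lactamase reporter, stimulated by agonist LG190178. Compounds were added 4 h after plating and incubated 18 h. A FRET beta-lactam substrate was then added for 2 h and cleaved substrate emission read at 447 nm.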
# [17] = molecular target: Glucocorticoid receptor (Homo sapiens) (UniProt P04150); assay: GR-GFP Redistribution (AID 450;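 active means compounds whose dose series gives a full or clear partial fitted curve of increased nuclear translocation; inconclusive means weak partial curve or effect only at the top dose; inactive means no dose-dependent translocation response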; further: potency means the concentration at half of the fitted maximal effect); details: U2OS GR-GFP nuclear translocation, laser cytometry, 2 h
# [18] = molecular target: Glucocorticoid receptor (Homo sapiens) (UniProt P04150); assay: GR-EFC Redistribution (AID 451; calls by dose curve; further: potency means the concentration at half of the fitted maximal effect); details: CHO-K1 GR-EFC translocation, beta-gal luminescence, 2 h
# Outline: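 CHO-K1 cells stably expressing nuclear-localized β-gal enzyme acceptor and GR fused C-terminally to the enzyme donor fragment; ligand-driven nuclear translocation restores β-gal by complementation. Compounds titrated up to 46 uM final, 2 h at 37 °C; luminescence read.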
# [19] = qHTS Assay for Identification of Small Molecule Agonists for Thrombopoietin (TPO) Signaling Pathway (AID 917); further: potency means the concentration at half of the fitted maximal effect
# Outline: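 Activators of TPO signaling were sought in murine Ba/F3 cells transfected with the human receptor, using a luciferase gene driven by the Glycoprotein IIb promoter; 24-hr compound exposure at 37 C alongside 26 pM TPO, in IL-3-free medium.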
compound,measurement,setting,value
NS(=O)(=O)c1cc2c(cc1Cl)N[C@@H]([C@@H]1C[C@@H]3C=C[C@H]1C3)NS2(=O)=O,"activity, negative = inhibition",[1],inconclusive: 168% [activator] [at 38 µM]
same,Potency,[2],"inconclusive: 0.0631 µM [activator, full curve, poor fit]"
same,Potency,[3],inactive
same,"activity change, negative = inhibition",[4],inconclusive: -16.1% [phenotype inactive]
same,Potency,[5],"inconclusive: 7.08 µM [inhibitor, partial curve, poor fit]"
same,Potency,[6],"inconclusive: 31.6 µM [inhibitor, partial curve, poor fit]"
O=c1c(-c2cccs2)nc2cnc(Oc3ccccc3)nc2n1C1CC1,"activity, negative = inhibition",[1],inconclusive: 36.1% [activator]
same,Potency,[2],"inconclusive: 20 µM [activator, partial curve]"
same,Potency,[7],"inconclusive: 1.58 µM [inhibitor, single point]"
same,Potency,[8],active: 3.16 µM
same,Potency,[6],"inconclusive: 25.1 µM [inhibitor, single point]"
O=C(Oc1ccccc1)N1CCC2(CC1)CN(c1ccccn1)C2,"activity change, negative = inhibition",[9],inconclusive: -63.2% [inhibitor]
same,Potency,[10],inactive
same,Potency,[11],active: 15.8 µM
same,Potency,[6],inactive
COc1ccccc1CNc1ncncc1-c1ccc(N(C)C)cc1,Potency,[2],"inconclusive: 25.1 µM [inhibitor, partial curve]"
same,Potency,[12],"inconclusive: 10 µM [activator, partial curve]"
same,activation,[8],inconclusive: -24.8%
same,Potency,[13],"inconclusive: 44.7 µM [inhibitor, partial curve]"
same,Potency,[6],"inconclusive: 20 µM [inhibitor, single point]"
COc1cccc(-c2nccc(NC3CCNCC3)n2)c1,Potency,[14],"inconclusive: 20 µM [inhibitor, partial curve]"
same,Potency,[6],"inconclusive: 28.2 µM [inhibitor, single point]"
OC[C@@H]1O[C@@H](n2cnc3c(NC4CCCC4)ncnc32)[C@H](O)[C@H]1O,Potency,[13],inactive
same,Potency,[6],"inconclusive: 0.891 µM [inhibitor, full curve]"
CCNCCCNCCCNCCCNCC,Potency,[13],inactive
same,Potency,[6],"inconclusive: 2.24 µM [inhibitor, full curve, poor fit]"
CC[C@@H](C)[C@H]1O[C@]2(CC[C@@H]1C)C[C@@H]1C[C@H](C/C=C(/C)[C@H](O[C@@H]3C[C@H](OC)[C@H](O[C@@H]4C[C@H](OC)[C@@H](O)[C@H](C)O4)[C@H](C)O3)[C@@H](C)/C=C\C=C3CO[C@@H]4[C@H](O)C(C)=C[C@@H](C(=O)O1)[C@]34O)O2 (tested in a mixture with another compound),Potency,[13],"inconclusive: 17.8 µM [inhibitor, full curve]"
same,Potency,[6],inactive
Cc1nc(N=Nc2cc(S(=O)(=O)O)ccc2S(=O)(=O)O)c(COP(=O)(O)O)c(C=O)c1O,Potency,[14],active: 1 µM
same,Potency,[13],"inconclusive: 50.1 µM [inhibitor, partial curve, poor fit]"
same,Potency,[6],"inconclusive: 35.5 µM [inhibitor, partial curve, poor fit]"
COc1cc2c(cc1OC)-c1cc3nc4ccccc4nc3n1C(C)(C)C2,Potency,[2],"inconclusive: 0.0794 µM [activator, full curve]"
same,Potency,[13],"inconclusive: 50.1 µM [inhibitor, partial curve, poor fit]"
same,Potency,[15],active: 12.6 µM
same,Potency,[16],"inconclusive: 18.4 µM [inhibitor, partial curve]"
same,Potency,[6],"inconclusive: 28.2 µM [inhibitor, single point]"
OC[C@H]1NC[C@H](O)[C@@H](O)[C@H]1O,Potency,[13],inactive
same,Potency,[6],"inconclusive: 2.82 µM [inhibitor, full curve, poor fit]"
N#Cc1ccccc1-c1cncnc1NCc1cccnc1,Potency,[17],inconclusive: 33.8 µM [single point]
same,Potency,[12],inactive
same,Potency,[10],"inconclusive: 0.199 µM [inhibitor, full curve]"
same,Potency,[6],"inconclusive: 25.1 µM [inhibitor, single point]"
COc1ccc(NC(=O)N2CC[C@@]3(CCCN(C(=O)c4ccc(OC)cc4)C3)C2)cc1,Potency,[18],inconclusive: > 46 µM [single point]
same,Potency,[6],inactive
CCCCCCCCCCCCC/C=C\[C@@H](O)[C@@H](N)CO,Potency,[2],"inconclusive: 10 µM [activator, partial curve]"
same,Potency,[3],inactive
same,Potency,[19],"inconclusive: 10 µM [inhibitor, partial curve]"
same,Potency,[4],active: 10 µM
same,Potency,[5],"inconclusive: 7.94 µM [inhibitor, full curve, poor fit]"
same,Potency,[13],active: 50.1 µM
same,Potency,[6],"inconclusive: 1 µM [inhibitor, full curve]"
